The record followed here is PubChem BioAssay AID2685 (National Center for Advancing Translational Sciences (NCATS), 2010).

The test in a line: qHTS Assay for Lipid Storage Modulators in Drosophila S3 Cells.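 On cell number change: cells counted by Cell Tracker Red CMTPX staining in the red channel.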 The note with it: BODIPY lipid droplet fluorescence, 18-24 h; for cell number change: measured here: cell count max response, cells fed with added oleic acid. The essentials: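 Laser-scanning cytometry quantifies lipid droplet accumulation (500–530 nm total intensity; droplet/cell object ratio) in oleic acid-fed (400 uM added) Drosophila S3 cells treated with a concentration series. 20 uM Triacsin C defined 100% inhibition.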

Where [1] appears, read: measured here: cell number channel AC50, cells fed with added oleic acid.
Setting [2] is: measured here: lipid fluorescence (Fed channel) AC50, cells fed with added oleic acid.

This is one part of the list. These are further read-outs of the screen, such as a control signal, another cell line or another target. No call is given for them. Compounds called inactive in the main read-out are mostly missing here. Potencies come from curve fits of mixed quality, noted in brackets.

Take `CC1(C)CC(=O)C2=C(C1)OC1=C(C(=O)CC(C)(C)C1)C2c1ccc(O)cc1O`: the cell number change is -31.6%. Besides, the AC50 under setting [1] is 29.1 µM [falling, single point]. Besides, the AC50 under setting [2] is 14.6 µM [falling, partial curve]. As for `CCCN1CC=C2C(C#N)=C(N)C(C#N)(C#N)C(c3cc(OC)ccc3OC)C2C1` (configuration not stated), the cell number change worked out at 22.5%.

Regarding `CCOC(=O)c1nc2ccccc2c(=O)[nH]1`, the cell number change was -11.9%. Under setting [2], the AC50 was 0.058 µM [falling, full curve, poor fit].

With `NC(=O)c1cccc(NC(=O)Nc2ccc(Cl)cc2)c1`, the cell number change was -1.1%. For the same molecule, under setting [2], the AC50 is 29.1 µM [rising, single point]. Consider `Cc1nn(-c2ncc(C(F)(F)F)cc2Cl)c(=O)n1-c1cccc(F)c1`, for which the cell number change was -39.9%. For the same molecule, the AC50 under setting [1] is 1.84 µM [falling, full curve, poor fit]. Moreover, the half-maximal activity concentration (AC50) under setting [2] was 29.1 µM [falling, partial curve, poor fit]. On to `CCCCCC(=O)NC(=S)NNC(=O)CC`, for which the cell number change came to 16.2%. Under setting [2], the AC50 was 1.84 µM [falling, partial curve, poor fit]. `COc1cccc(/C=C/C(=O)Nc2ccc3nc4n(c(=O)c3c2)CCCC4)c1OC`: the cell number change was -17.5%. Further, under setting [2], the AC50 was 25.9 µM [falling, single point]. Take `Cc1c(-n2c(SCC(=O)O)nnc2-c2ccccc2Cl)c(=O)n(-c2ccccc2)n1C`: the cell number change is -2.53%. For the same molecule, under setting [2], the AC50 is 0.461 µM [falling, full curve]. On to `O=C(NCCc1c[nH]c2ccccc12)c1c(Cl)nc2sccn12`, for which the cell number change is -7.05%. Take `O=S(=O)(c1ccc(Cl)nc1)N(Cc1ccccc1)Cc1ccccc1`: the cell number change is 16.6%. Also, the AC50 under setting [2] is 29.1 µM [rising, single point]. For the molecule `COC(=O)c1ccccc1S(=O)(=O)N1CCC(C(=O)NC2CCCCC2C)CC1` (configuration not stated), the cell number change was found to be 6.09%. Further, under setting [2], the AC50 is 0.411 µM [rising, partial curve]. Turning to `CC(C)NC(=O)N1CC(c2ccccc2)C(c2ccc(Cl)cc2)=N1` (configuration not stated), the cell number change is -20.8%. Further, under setting [2], the AC50 is 29.1 µM [falling, single point].

With `COc1ccc(C(=O)N/C(=C/c2cccs2)c2nc3ccccc3[nH]2)cc1OC`, the cell number change is -22.6%. Also, the AC50 under setting [1] is 6.51 µM [rising, single point]. In the case of `CC(C)c1ccc(C(C(=O)NC2CCCCC2)N(C(=O)c2ccccn2)c2cccnc2)cc1` (configuration not stated), the cell number change is -0.311%. Besides, the AC50 under setting [1] is 0.13 µM [rising, full curve, poor fit]. Also, the AC50 under setting [2] was 0.651 µM [rising, full curve].

On to `CCc1ccccc1NC(=O)/C(C#N)=C/c1ccc(Sc2ccccc2)o1`, for which the half-maximal activity concentration (AC50) under setting [2] was 29.1 µM [falling, single point]. As to `O=C(c1cn(Cc2ccccc2)nc1-c1ccccc1)N1CCN(c2ccccn2)CC1`, the cell number change worked out at 12.9%. Besides, under setting [2], the concentration at half-maximal activity (AC50) was 6.51 µM [rising, partial curve]. Take `Cc1ccc(S(=O)(=O)N(C)c2ccc(OC(=O)c3cccs3)cc2)cc1C`: the cell number change is -6.84%. Regarding `COc1ccc(Cl)cc1Nc1nnc(-c2ccncc2)s1`, the cell number change is 11.6%. Besides, under setting [2], the AC50 was 0.092 µM [rising, full curve, poor fit]. Consider `O=C(O)CC1(CC(=O)Nc2ccc3ccccc3c2)CCCCC1`, for which the cell number change is -61.3%. Further, the half-maximal activity concentration (AC50) under setting [1] is 5.8 µM [falling, partial curve]. Also, the AC50 under setting [2] was 5.8 µM [rising, full curve, poor fit]. For the molecule `CC1CC(C)CN(C(=O)/C=C/c2ccc(S(=O)(=O)N3CCOCC3)cc2)C1` (configuration not stated), the cell number change is -8.03%. On to `CCn1cc(C(=O)NCC(OC)OC)c(=O)c2cc(S(=O)(=O)N3CCCC3)ccc21`, for which the cell number change is 8.02%. Also, the AC50 under setting [2] was 29.1 µM [rising, partial curve].

For the molecule `O=C(c1ccccc1)N1CCN(C2CCCCCC2)CC1`, the AC50 under setting [2] is 18.4 µM [falling, partial curve]. Turning to `O=S(=O)(c1ccc(Br)cc1)c1nc(-c2ccccc2)oc1NCc1cccnc1`, the cell number change is -0.545%.

Turning to `O=C(Nn1c(=O)[nH]c2ccccc2c1=O)c1ccco1`, the cell number change was -29.9%. Under setting [1], the AC50 is 0.82 µM [falling, full curve, poor fit]. The AC50 under setting [2] is 29.1 µM [falling, single point]. As for `CCc1noc(C)c1C(=O)N1CCCSC1=Nc1ccccc1Cl`, the cell number change was 29.7%. As to `CCOc1cc(/C=N\Nc2ccc([N+](=O)[O-])cc2)ccc1OCC(=O)Nc1ccc(C)c(C)c1`, the cell number change was determined as 62.4%. The half-maximal activity concentration (AC50) under setting [1] was 29.1 µM [rising, single point]. In the case of `COC(=O)c1ccc(Oc2nc(C(N)=O)cc(-c3ccccc3)n2)cc1`, the concentration at half-maximal activity (AC50) is 2.91 µM [rising, partial curve] under setting [1] and 2.59 µM [rising, full curve] under setting [2]. Turning to `COc1ccc(N2CCN(C(=O)CNC(=O)c3nn(-c4ccc(OC)cc4)c(=O)c4ccccc34)CC2)cc1`, the cell number change is -2.7%. Moreover, the AC50 under setting [2] was 29.1 µM [falling, single point]. `O=C(CN(Cc1ccc(F)cc1)C(=O)CNS(=O)(=O)c1ccccc1)NCc1ccco1`: the cell number change was -4.17%. The AC50 under setting [2] is 0.651 µM [falling, single point].

Take `CCC(C)(CCNC(=O)Cc1ccccc1)c1ccccc1OC` (configuration not stated): the cell number change was -18.6%. Besides, under setting [2], the AC50 was 0.00461 µM [falling, full curve, poor fit]. Regarding `CCOc1ccc2nc(N(CCCN(C)C)C(=O)c3ccc(C(=O)c4ccccc4)cc3)sc2c1`, the cell number change was 22.8%. Besides, under setting [2], the AC50 is 9.2 µM [rising, partial curve, poor fit].

As to `CC(C)(C)n1cnc2cc(NC(=O)c3ccc(Cl)cc3)ccc21`, the cell number change is -21.5%. The concentration at half-maximal activity (AC50) under setting [2] is 4.11 µM [falling, full curve]. Take `COc1cccc([C@H](O)Cn2cc(-c3ccc(CON=C(C)C)cc3)nn2)c1`: the cell number change worked out at 3.78%. Also, the AC50 under setting [2] is 1.03 µM [rising, full curve, poor fit]. Take `O=S(=O)(c1ccc(Br)cc1)N1CCN(c2cc(-c3ccccc3)nc3ncnn23)CC1`: the cell number change was 18%. On the same count and under the same terms, the result for `O=C(c1ccccc1)c1cccc(C(=O)c2ccccc2)c1` reads -0.35%. Consider `O=C(CN1C(=O)NC2(CCCC2)C1=O)Nc1ccc(F)c(Cl)c1`, for which the cell number change was -10.5%. In addition, the AC50 under setting [2] was 35.5 µM [falling, single point]. Turning to `Cc1cccc(N(C)C(=O)CN2C(=O)COc3ccc(S(=O)(=O)N4CCCCCC4)cc32)c1`, the cell number change is -37.8%. Also, the AC50 under setting [1] is 16.4 µM [falling, partial curve]. Further, the AC50 under setting [2] is 0.461 µM [falling, partial curve, poor fit]. On to `CC(C)Cn1nc(C(=O)NCc2ccccc2CN2CCCC2)c2ccccc2c1=O`, for which the cell number change was 14.5%. Besides, the AC50 under setting [1] is 0.092 µM [rising, full curve, poor fit]. Further, under setting [2], the concentration at half-maximal activity (AC50) is 1.3 µM [rising, full curve]. Take `O=C(COC(=O)c1cccs1)NCc1ccco1`: the cell number change was found to be 1.12%. Regarding `CC(NC(=O)Cc1ccc(Br)cc1)c1ccccc1` (configuration not stated), the cell number change came out at 3.3%. The AC50 under setting [2] is 29.1 µM [rising, single point]. Take `COc1ccc(S(=O)(=O)N2CCN(C(=O)c3ccco3)CC2)cc1OC`: the AC50 was 0.116 µM [falling, full curve, poor fit] under setting [1] and 0.116 µM [falling, full curve, poor fit] under setting [2]. Turning to `CCN(Cc1ccccc1)C(=O)C1CCN(c2ncnc3c2nc2n3CCCCC2)CC1`, the cell number change is -14.9%. For the same molecule, the AC50 under setting [2] is 23.1 µM [falling, single point]. Regarding `Cc1ccccc1CCNC(=O)Cn1ccc2cc(S(=O)(=O)N3CCCC3)ccc21`, the cell number change was -3.36%. Also, the AC50 under setting [2] was 0.82 µM [rising, single point]. As for `CC1CCN(c2nnc(NC(=O)Cn3c(=O)oc4ccccc43)s2)CC1`, the cell number change is 20.5%. In addition, the concentration at half-maximal activity (AC50) under setting [2] is 0.231 µM [falling, full curve, poor fit].

In the case of `Fc1ccc(C2CC(c3cccs3)=NN2c2ccccc2)cc1` (configuration not stated), the cell number change is -44.9%. The AC50 under setting [1] was 9.2 µM [falling, partial curve, poor fit]. Further, the AC50 under setting [2] is 0.116 µM [falling, full curve, poor fit].

Consider `Cc1ccc(CN(c2ccc(C(=O)Nc3ccc4c(c3)OCO4)cc2)S(C)(=O)=O)cc1`, for which the cell number change is 84.4%. In addition, the AC50 under setting [1] is 1.03 µM [rising, full curve]. Moreover, the AC50 under setting [2] was 1.3 µM [rising, full curve]. Consider `CCN(CC(=O)NCc1cccs1)C(=O)c1ccccc1Cl`, for which the cell number change is -8.73%. For the same molecule, under setting [1], the AC50 was 6.51 µM [falling, partial curve].

On to `CCOc1ccccc1OCC(=O)Nc1cc(S(=O)(=O)N2CCCCC2)ccc1N1CCN(CC)CC1`, for which the AC50 under setting [2] is 3.66 µM [rising, partial curve]. On to `COc1ccc(COC(=O)Oc2ccc(CNC(C)=O)cc2OC)c([N+](=O)[O-])c1`, for which the cell number change worked out at 17.2%. The half-maximal activity concentration (AC50) under setting [1] was 6.51 µM [falling, single point]. Moreover, the AC50 under setting [2] is 5.8 µM [falling, single point]. Turning to `COc1ccc(/C=N/NC(=O)c2cc(C)oc2C)cc1OCc1ccccc1`, the AC50 under setting [2] was 0.103 µM [falling, full curve, poor fit]. In the case of `COc1cccc(-n2cnnn2)c1`, the cell number change is 1.59%. Consider `COc1ccccc1NC(=O)C(=O)N(c1cccnc1)C(C(=O)NC(C)(C)C)c1ccccc1` (configuration not stated), for which the cell number change is -28.3%.

Regarding `Cc1ccc(CNC(=O)c2ccc(S(=O)(=O)N(C)C)cc2)n1C`, the cell number change was found to be 2.86%. Further, the half-maximal activity concentration (AC50) under setting [2] was 6.51 µM [rising, single point]. With `Cc1ccc([C@@H]2CC=C(C(=O)O)[C@H](c3ccc(Cl)cc3)N2S(=O)(=O)c2ccc(C)cc2)cc1`, the cell number change stood at 32.9%. Further, the AC50 under setting [1] is 29.1 µM [rising, single point]. The AC50 under setting [2] was 14.6 µM [rising, partial curve, poor fit]. With `CCCN(S(=O)(=O)c1ccccc1F)S(=O)(=O)c1ccccc1Br`, the cell number change was -27.8%.

As for `CN(C)c1oc(-c2ccccc2Cl)nc1C#N`, the cell number change was determined as 21.1%. The AC50 under setting [1] is 0.231 µM [rising, full curve, poor fit]. The AC50 under setting [2] is 0.231 µM [rising, full curve, poor fit]. Take `COc1ccc(NC(=O)c2ccc3ccccc3c2)cc1NS(=O)(=O)c1ccc(F)cc1`: the cell number change came to 15.8%. As to `O=C(c1ccco1)N1CCN(Cc2nnnn2C2CCCCC2)CC1`, the cell number change is 9.57%. Also, the AC50 under setting [2] is 0.58 µM [falling, single point]. With `COC(=O)C(Cc1ccccc1)NC(=O)c1ccc(NS(=O)(=O)c2ccc3[nH]c(=O)[nH]c3c2)cc1` (configuration not stated), the cell number change is -3.5%.

The term AC50 denotes the concentration at which the activity in the assay is half-maximal.
